Reference: patent US4736051A, “Process for the preparation of an alkali metal salt of a diester phosphoric acid” (Kao Corporation, priority 1985, dated 1988)

What was measured:
[1] = Polymerization in aqueous solution with K2S2O8; type: physicochemical
[2] = Photopolymerization of Compound (XIV)/water 50/50 with benzoin isobutyl ether; type: physicochemical; conditions: light irradiation 2 hours

In the case of `C=C(C)C(=O)OCC(O)COP(=O)([O-])OCCCCCCCCCCCC.[Na+]` (centres unmarked) [Compound (XIV), sodium dodecyl 2-hydroxy-3-methacryloyloxypropyl phosphate], the “product of polymerization in aqueous solution” value ([1]; about 10% aqueous solution, 1% K2S2O8, 60° to 70° C., 4 to 5 hours) is reported as “colorless, transparent, highly viscous aqueous solution”, the “gelling of polymer product” value ([1]; in water or methanol) is reported as “capable of being gelled in water or methanol” and the “film formation of polymer product on slide glass” value ([1]; placed on slide glass and allowed to stand) is reported as “colorless transparent film-like material”. For the same compound, the product of photopolymerization ([2]; 50/50 with water, 2% benzoin isobutyl ether, nitrogen) was “colorless transparent rubber-like material” and the “product of photopolymerization, sandwiched between slide glasses” value ([2]; thin sample) was “colorless transparent film-like material”.
